The values below come from article PMC5386304.

Amino acid sequences for entries named in this document (tags omitted). A change or cut given only in a name is not applied to a line headed by its entry.
UniProt A0A2R8VJU7: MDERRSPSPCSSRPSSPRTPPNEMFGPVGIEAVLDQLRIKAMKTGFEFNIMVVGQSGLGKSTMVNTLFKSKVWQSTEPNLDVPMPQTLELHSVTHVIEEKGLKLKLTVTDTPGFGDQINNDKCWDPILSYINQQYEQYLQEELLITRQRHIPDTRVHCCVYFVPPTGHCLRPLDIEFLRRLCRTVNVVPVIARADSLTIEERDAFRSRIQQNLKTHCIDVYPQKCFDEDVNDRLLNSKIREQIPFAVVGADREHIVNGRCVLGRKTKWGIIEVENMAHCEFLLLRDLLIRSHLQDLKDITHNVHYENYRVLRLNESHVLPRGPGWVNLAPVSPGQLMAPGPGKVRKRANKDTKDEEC

The target of experiment [1] is T1, His-tagged SEPT7 recombinant protein (UniProt Q16181).
T1 sequence: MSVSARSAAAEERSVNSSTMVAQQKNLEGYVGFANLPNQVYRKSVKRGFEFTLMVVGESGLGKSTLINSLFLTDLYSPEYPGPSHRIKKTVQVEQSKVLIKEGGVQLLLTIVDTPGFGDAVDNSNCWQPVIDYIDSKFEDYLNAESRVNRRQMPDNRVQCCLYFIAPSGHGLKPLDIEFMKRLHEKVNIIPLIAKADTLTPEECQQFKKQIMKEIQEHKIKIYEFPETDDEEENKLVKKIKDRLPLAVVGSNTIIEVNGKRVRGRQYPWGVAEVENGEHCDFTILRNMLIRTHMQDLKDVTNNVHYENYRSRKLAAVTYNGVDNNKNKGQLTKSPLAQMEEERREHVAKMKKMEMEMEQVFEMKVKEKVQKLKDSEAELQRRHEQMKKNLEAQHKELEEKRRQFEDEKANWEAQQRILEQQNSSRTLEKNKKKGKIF
The experiment can be described thus: pull-down; 5 μg His-SEPT7 on 30 μl Ni-NTA beads, 5 mM imidazole, incubated with testicular lysate of WT or SEPT12^S196E/S196E mice overnight at 4°C; washed three times; blots for SEPT12, SEPT2, SEPT6 and His; only the target purified.

A further experiment deals with T2, GFP-SEPT12WT (human) (UniProt Q8IYM1).
T2 sequence: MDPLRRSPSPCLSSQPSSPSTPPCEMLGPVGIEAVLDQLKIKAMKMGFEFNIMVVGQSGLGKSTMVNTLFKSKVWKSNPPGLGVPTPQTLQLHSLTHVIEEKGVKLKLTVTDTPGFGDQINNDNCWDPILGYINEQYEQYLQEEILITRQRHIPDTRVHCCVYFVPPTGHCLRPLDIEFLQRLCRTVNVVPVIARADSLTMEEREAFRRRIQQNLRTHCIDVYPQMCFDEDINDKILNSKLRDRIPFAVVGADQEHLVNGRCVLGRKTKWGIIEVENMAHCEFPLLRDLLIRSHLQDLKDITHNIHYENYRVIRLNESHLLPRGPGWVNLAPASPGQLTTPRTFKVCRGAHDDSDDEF
The experiment can be described thus: co-IP; NT2/D1 cells co-transfected with HA-SEPT4, Myc-SEPT6, FLAG-SEPT7 and a GFP-SEPT12 plasmid; lysates immunoprecipitated with anti-GFP; blots with anti-HA, anti-Myc, anti-FLAG, anti-GFP.

These are yes or no findings as the source states them, for the method shown. In cells and extracts the contact can be indirect. Binding can be weak; no strength is given. Tags and fused reporters may be left off the sequences shown.

Turning to “SEPT12 S196E (phosphomimetic SEPT12 of knock-in mouse testis) (from UniProt A0A2R8VJU7-2)”, the binding result in experiment [1] was “no binding”.
Still for that read-out and setting: the result for “SEPT12 (endogenous, wild-type mouse testis) (from UniProt A0A2R8VJU7)” reads “binds”.
On to HA-SEPT4 (from UniProt O43236-1), for which the binding entry with GFP-SEPT12WT (human) is “binds”.
